{
  "sequences": {"note": "Sequences of proteins named here, by UniProt entry; tags and fusion partners are left off. A change or cut given only in a name is not applied to a line headed by its entry.", "UniProt P53131": "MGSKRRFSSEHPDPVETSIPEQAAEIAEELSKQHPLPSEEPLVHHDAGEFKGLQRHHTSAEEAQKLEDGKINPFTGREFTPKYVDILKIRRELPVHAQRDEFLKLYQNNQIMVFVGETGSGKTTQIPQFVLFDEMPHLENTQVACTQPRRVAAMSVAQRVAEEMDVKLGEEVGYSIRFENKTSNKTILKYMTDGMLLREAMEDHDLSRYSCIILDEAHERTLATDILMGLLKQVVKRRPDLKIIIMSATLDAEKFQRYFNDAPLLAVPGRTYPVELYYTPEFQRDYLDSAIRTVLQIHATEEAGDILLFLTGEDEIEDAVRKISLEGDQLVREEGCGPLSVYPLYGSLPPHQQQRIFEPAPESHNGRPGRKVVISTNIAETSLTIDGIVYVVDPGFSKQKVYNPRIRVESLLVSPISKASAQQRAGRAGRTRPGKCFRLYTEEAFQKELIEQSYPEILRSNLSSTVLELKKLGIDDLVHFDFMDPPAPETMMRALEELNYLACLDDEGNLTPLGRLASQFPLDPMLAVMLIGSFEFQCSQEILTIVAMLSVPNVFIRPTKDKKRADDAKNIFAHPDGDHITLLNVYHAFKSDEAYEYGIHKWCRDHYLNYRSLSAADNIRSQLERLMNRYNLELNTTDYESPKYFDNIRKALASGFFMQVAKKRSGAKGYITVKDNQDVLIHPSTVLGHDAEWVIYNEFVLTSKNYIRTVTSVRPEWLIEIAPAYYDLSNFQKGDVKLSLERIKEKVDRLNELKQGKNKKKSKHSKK"},
  "source": "paper PMC4066782",
  "about": "“The telomerase inhibitor Gno1p/PINX1 activates the helicase Prp43p during ribosome biogenesis” (Nucleic Acids Research, 2014)",
  "molecules": {"B1": {"name": "GST-PINX1-HIS (natural protein, human, UniProt Q96BK5 1-328, looked up)", "chain": "MSMLAERRRKQKWAVDPQNTAWSNDDSKFGQRMLEKMGWSKGKGLGAQEQGATDHIKVQVKNNHLGLGATINNEDNWIAHQDDFNQLLAELNTCHGQETTDSSDKKEKKSFSLEEKSKISKNRVHYMKFTKGKDLSSRSKTDLDCIFGKRQSKKTPEGDASPSTPEENETTTTSAFTIQEYFAKRMAALKNKPQVPVPGSDISETQVERKRGKKRNKEATGKDVESYLQPKAKRHTEGKPERAEAQERVAKKKSAPAEEQLRGPCWDQSSKASAQDAGDHVQPPEGRDFTLKPKKRRGKKKLQKPVEIAEDATLEETLVKKKKKKDSK"}, "B2": {"name": "Gno1p-HA (plasmid pFH170) (protein, UniProt P53335 1-271)", "chain": "MGLAATRTKQRFGLDPRNTAWSNDTSRFGHQFLEKFGWKPGMGLGLSPMNSNTSHIKVSIKDDNVGLGAKLKRKDKKDEFDNGECAGLDVFQRILGRLNGKESKISEELDTQRKQKIIDGKWGIHFVKGEVLASTWDPKTHKLRNYSNAKKRKREGDDSEDEDDDDKEDKDSDKKKHKKHKKHKKDKKKDKKDKKEHKKHKKEEKRLKKEKRAEKTKETKKTSKLKSSESASNIPDAVNTRLSVRSKWIKQKRAALMDSKALNEIFMITND"}, "B3": {"name": "GST-PINX1Gm-HIS (protein, UniProt Q96BK5 1-328)", "chain": "B1 chain with L34A, G38E, G42E, G44E, L45A, G46E"}},
  "key": {"PINX1-HA (human)": {"biological_target": "T1, PINX1-HA (human) (UniProt Q96BK5)", "T1 sequence": "B1 chain", "assay": "co-IP; anti-HA affinity gel precipitates the HA-tagged protein from yeast extracts; Prp43p detected by western blot"}, "[1]": {"biological_target": "T2, Gno1p-HA (plasmid pFH170) (S. cerevisiae) (UniProt P53335)", "T2 sequence": "B2 chain", "assay": "co-IP; anti-HA affinity gel precipitates the HA-tagged protein from yeast extracts; Prp43p detected by western blot"}, "[2]": {"biological_target": "Prp43p-TAP (S. cerevisiae) (UniProt P53131)", "assay": "co-IP; IgG sepharose beads precipitate the TAP- or ZZ-tagged protein from total yeast extracts; HA-tagged protein detected by western with anti-HA antibodies"}, "Prp43p-HIS": {"biological_target": "Prp43p-HIS (S. cerevisiae, UniProt P53131 1-767)", "assay": "pull-down; 2 μg of each purified recombinant protein mixed in 500-μl IP buffer (25-mM Tris-HCl pH 8.0, 300-mM KCl, 5-mM MgCl2, 10% glycerol, 0.1% NP-40, 0.5-mM DTT), pre-cleared, then precipitated with protein A/protein G Sepharose beads coated with anti-Prp43p antibodies, 2 h at 4°C; western with anti-His; both purified"}},
  "note": "Changes are numbered by the printed parent chain. These are yes or no findings as the source states them, for the method shown. For some assays here: Binding seen in cells or lysates may run through a third protein. Some entries that bind do so weakly or less than the wild type. Tags and fused reporters may be left off the sequences shown.",
  "data": [
    {"molecule": "Prp43p (in extracts of Δgno1 cells expressing HA-tagged proteins) (from UniProt P53131 1-767) (enzyme)", "values": [
      {"measurement": "binding", "setting": "PINX1-HA (human)", "value": "binds"},
      {"measurement": "binding", "setting": "[1]", "value": "binds"}
    ]},
    {"molecule": "B1", "values": [
      {"measurement": "binding", "setting": "[2]", "value": "binds"}
    ]},
    {"molecule": "B2", "values": [
      {"measurement": "binding", "setting": "[2]", "value": "binds"}
    ]},
    {"molecule": "B3", "values": [
      {"measurement": "binding", "setting": "Prp43p-HIS", "value": "no binding (tested: 2 μg of each protein in 500 μl)"}
    ]}
  ]
}
